No constants are given. Whether binding was seen depends on the method and setting. In cells and extracts the contact can be indirect. Some binding calls cover weakened binding; strength is not graded here. Tags and fused reporters may be left off the sequences shown.
Molecular target: T1, SALL1ΔSUMO-YFP (human) (UniProt Q9NSC2)
T1 sequence: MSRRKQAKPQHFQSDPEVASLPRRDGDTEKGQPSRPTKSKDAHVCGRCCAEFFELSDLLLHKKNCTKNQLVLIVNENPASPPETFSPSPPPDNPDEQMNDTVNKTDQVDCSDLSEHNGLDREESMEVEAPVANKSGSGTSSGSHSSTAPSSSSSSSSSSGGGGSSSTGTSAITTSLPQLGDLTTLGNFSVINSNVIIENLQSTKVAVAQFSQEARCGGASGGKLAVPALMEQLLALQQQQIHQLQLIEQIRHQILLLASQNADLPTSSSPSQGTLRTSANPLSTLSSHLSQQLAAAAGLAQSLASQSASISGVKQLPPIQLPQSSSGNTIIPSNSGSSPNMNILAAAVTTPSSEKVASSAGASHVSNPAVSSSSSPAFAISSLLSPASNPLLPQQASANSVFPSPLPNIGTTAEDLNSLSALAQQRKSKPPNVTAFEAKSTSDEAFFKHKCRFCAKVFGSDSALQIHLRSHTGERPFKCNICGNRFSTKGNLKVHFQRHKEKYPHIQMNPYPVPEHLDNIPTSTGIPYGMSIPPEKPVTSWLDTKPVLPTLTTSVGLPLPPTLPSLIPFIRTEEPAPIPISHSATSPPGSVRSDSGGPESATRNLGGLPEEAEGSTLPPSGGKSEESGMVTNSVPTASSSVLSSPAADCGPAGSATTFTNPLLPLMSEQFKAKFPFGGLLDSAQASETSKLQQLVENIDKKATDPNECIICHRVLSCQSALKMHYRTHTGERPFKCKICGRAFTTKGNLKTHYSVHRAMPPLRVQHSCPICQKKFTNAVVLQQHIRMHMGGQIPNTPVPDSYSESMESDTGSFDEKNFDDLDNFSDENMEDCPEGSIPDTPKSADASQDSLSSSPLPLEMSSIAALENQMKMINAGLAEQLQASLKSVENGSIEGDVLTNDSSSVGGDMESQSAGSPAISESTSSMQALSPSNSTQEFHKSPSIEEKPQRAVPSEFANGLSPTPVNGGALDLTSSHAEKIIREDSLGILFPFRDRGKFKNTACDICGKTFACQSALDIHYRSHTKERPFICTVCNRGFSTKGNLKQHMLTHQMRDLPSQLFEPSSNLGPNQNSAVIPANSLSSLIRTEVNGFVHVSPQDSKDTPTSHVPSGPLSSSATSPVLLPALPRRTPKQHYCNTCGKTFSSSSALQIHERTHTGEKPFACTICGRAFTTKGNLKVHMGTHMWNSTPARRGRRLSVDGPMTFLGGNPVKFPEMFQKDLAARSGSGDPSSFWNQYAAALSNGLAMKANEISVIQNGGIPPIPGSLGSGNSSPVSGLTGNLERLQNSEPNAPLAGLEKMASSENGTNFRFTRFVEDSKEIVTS
Test: pull-down; GFP-Trap co-pulldown: YFP-tagged bait and HA-tagged prey co-transfected in HEK 293FT cells; lysate (150 mM NaCl, 1% NP-40, 0.5% Triton X-100) with GFP-Trap resin overnight at 4°C; washes with 300 mM NaCl; Western blot

B1: CBX4-HA (protein, UniProt O00257 1-560)
chain: MELPAVGEHVFAVESIEKKRIRKGRVEYLVKWRGWSPKYNTWEPEENILDPRLLIAFQNRERQEQLMGYRKRGPKPKPLVVQVPTFARRSNVLTGLQDSSTDNRAKLDLGAQGKGQGHQYELNSKKHHQYQPHSKERAGKPPPPGKSGKYYYQLNSKKHHPYQPDPKMYDLQYQGGHKEAPSPTCPDLGAKSHPPDKWAQGAGAKGYLGAVKPLAGAAGAPGKGSEKGPPNGMMPAPKEAVTGNGIGGKMKIVKNKNKNGRIVIVMSKYMENGMQAVKIKSGEVAEGEARSPSHKKRAADERHPPADRTFKKAAGAEEKKVEAPPKRREEEVSGVSDPQPQDAGSRKLSPTKEAFGEQPLQLTTKPDLLAWDPARNTHPPSHHPHPHPHHHHHHHHHHHHAVGLNLSHVRKRCLSETHGEREPCKKRLTARSISTPTCLGGSPAAERPADLPPAAALPQPEVILLDSDLDEPIDLRCVKTRSEAGEPPSSLQVKPETPASAAVAVAAAAAPTTTAEKPPAEAQDEPAESLSEFKPFFGNIIITDVTANCLTVTFKEYVTV
binding: binds
